This is one part of the list.
target: OsWRKY34 (Oryza sativa, UniProt Q0JBA9 1-250); assay: protein-binding microarray (RPBM); PBS, 2% BSA, 51.3 ng/ul salmon testes DNA, 50 uM zinc acetate, 200 nM TF, 25 C, 1 h; high values mean tight binding; conditions: protein: recombinant; tags: N-terminal polyhistidine and DsRed monomer fusion (pET32a); label: CyDye5-dUTP incorporated in the synthesized complementary strand; 3' TTTTT single-stranded linker to array surface; dsDNA, one strand shown
How it was run: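 Transcription factors, each fused N-terminally to a polyhistidine tag and DsRed, were expressed in E. coli BL21-CodonPlus and purified on Ni–NTA. A custom Agilent array was made double-stranded by primer extension with Cy5-dUTP and blocked with 2% BSA. It was incubated with 200 nM protein in PBS, 2% BSA, salmon testes DNA and 50 µM zinc acetate at 25 °C for 1 h, then washed. The binding signal is per-feature fluorescence intensity (arbitrary units) read on an Axon 4000B scanner.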

Amino acid sequences for entries named in this document (tags omitted).
UniProt Q0JBA9, entry or part of it: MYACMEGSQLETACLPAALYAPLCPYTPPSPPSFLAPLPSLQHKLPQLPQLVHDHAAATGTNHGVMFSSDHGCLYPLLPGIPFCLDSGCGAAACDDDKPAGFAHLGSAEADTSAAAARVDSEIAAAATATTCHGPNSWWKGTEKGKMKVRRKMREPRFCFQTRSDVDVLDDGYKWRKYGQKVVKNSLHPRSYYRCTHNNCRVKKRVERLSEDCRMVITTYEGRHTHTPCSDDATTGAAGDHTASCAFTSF

Row | Sequence | binding signal
1 | CCCTATCAATGACATGTGGGCCCTTATATATCTATGATATCGGAGTCACCTAGTGCAG | 8590 fluorescence intensity (a.u.)
2 | CGTTTTTGCGCGGTGGCACTTCACTGTCACACATGATGACCGGAGTCACCTAGTGCAG | 8090 fluorescence intensity (a.u.)
3 | GTAGTCCCATGGTTTGCTTGGCTCATAATCATCTTTTTTTCGGAGTCACCTAGTGCAG | 9160 fluorescence intensity (a.u.)
4 | TCTGCTTTAATCAGCCTAGTTCTCTGGACAACCTCCTGCTCGGAGTCACCTAGTGCAG | 9340 fluorescence intensity (a.u.)
5 | CAACGCCTCTCTCTCTCCATCTCGCCGCGTCCTCCTCCTCCGGAGTCACCTAGTGCAG | 9130 fluorescence intensity (a.u.)
6 | GACTGACTCGGTTTCCATCAACAGTACATCTTTATTTTTCCGGAGTCACCTAGTGCAG | 9680 fluorescence intensity (a.u.)
7 | CTACTTAAACCCATCATCCATCTCCTCCTACAACTACACACGGAGTCACCTAGTGCAG | 8760 fluorescence intensity (a.u.)
8 | TCGTCGCCTCCGCCTCGTGAGCTCCACTCACCTACCCCACCGGAGTCACCTAGTGCAG | 12200 fluorescence intensity (a.u.)
9 | GCGTTTCAGTCTATTTGTCGGCGATTTTTCGCGCTTGCATCGGAGTCACCTAGTGCAG | 11100 fluorescence intensity (a.u.)
10 | GCAGCGGCGTCGGCTTGGTTCGGGGAGGGGAGCGGAGTACCGGAGTCACCTAGTGCAG | 10700 fluorescence intensity (a.u.)
11 | TTTTTCCCTGAAGCTCCTGTGTGTCATCTCTCTTTTTCTTCGGAGTCACCTAGTGCAG | 11100 fluorescence intensity (a.u.)
12 | ATAGTGGTGGTGGTGGGTGGGAGCAGAAGCAGAAGCAGGACGGAGTCACCTAGTGCAG | 10900 fluorescence intensity (a.u.)
13 | GGCAGAACATTTTCTACGACTATTTTTTCTAGATACTTTTCGGAGTCACCTAGTGCAG | 10700 fluorescence intensity (a.u.)
14 | TTCTTTTTCTTTTTTCTCCTTGCTGTCTCAATCCTGATATCGGAGTCACCTAGTGCAG | 9000 fluorescence intensity (a.u.)
15 | TCTAGGTTTAGGGTTCCATTCATTTCTAGGTTGATTCTTCCGGAGTCACCTAGTGCAG | 10000 fluorescence intensity (a.u.)
16 | CCACCTCACACTCCATTCGCGAGGCCCACGGCCCAAGTGACGGAGTCACCTAGTGCAG | 9570 fluorescence intensity (a.u.)
17 | GGGTCGTCAGGATTTTCACTCTTGATGGGTTCAAATTTTGCGGAGTCACCTAGTGCAG | 9650 fluorescence intensity (a.u.)
18 | TTTTGCGTGCGGGCGGTATAACTTGACCGCGGTCCACTTACGGAGTCACCTAGTGCAG | 9630 fluorescence intensity (a.u.)
19 | TGTGGTGTCTAAGGTGCCATCGCATGGAAGGAAGTTGTGTCGGAGTCACCTAGTGCAG | 8070 fluorescence intensity (a.u.)
20 | AAGACTTTCTAGCATTCCTTACATTCATATATATGTTAATCGGAGTCACCTAGTGCAG | 8580 fluorescence intensity (a.u.)
21 | TAAATTTGTCTTGGGTTAAAAATGTTATTGTATTTTTCTACGGAGTCACCTAGTGCAG | 8620 fluorescence intensity (a.u.)
22 | AACATTGGCAAAATGTCCATTCTTTTCACCTGCTGCATGCCGGAGTCACCTAGTGCAG | 12100 fluorescence intensity (a.u.)
23 | AATTTATCCATTTTTTACTCCATTCCATGGTACTTATTTACGGAGTCACCTAGTGCAG | 12200 fluorescence intensity (a.u.)
24 | GCTCGTCCGTGCACATCCGCTGCAATGCCACCGTCAAGTACGGAGTCACCTAGTGCAG | 9940 fluorescence intensity (a.u.)
25 | CGTTTTTCTTTACACCCACGCAACCACCACCCAACCTCAACGGAGTCACCTAGTGCAG | 9000 fluorescence intensity (a.u.)
26 | TCGCTCCGTGCTCGACTCGTGTCTTCCACCTCATTCTCGACGGAGTCACCTAGTGCAG | 9820 fluorescence intensity (a.u.)
27 | TTCACCCACCGAACAATCACCAGCCGTTCGATCGCGTTCCCGGAGTCACCTAGTGCAG | 9180 fluorescence intensity (a.u.)

Reformatted: results already given.

| Row | Sequence | binding signal |
| --- | --- | --- |
| 16 | CCACCTCACACTCCATTCGCGAGGCCCACGGCCCAAGTGACGGAGTCACCTAGTGCAG | 9570 fluorescence intensity (a.u.) |
| 18 | TTTTGCGTGCGGGCGGTATAACTTGACCGCGGTCCACTTACGGAGTCACCTAGTGCAG | 9630 fluorescence intensity (a.u.) |

Looked up one by one from the list above:
Row | Sequence | binding signal
7 | CTACTTAAACCCATCATCCATCTCCTCCTACAACTACACACGGAGTCACCTAGTGCAG | 8760 fluorescence intensity (a.u.)
17 | GGGTCGTCAGGATTTTCACTCTTGATGGGTTCAAATTTTGCGGAGTCACCTAGTGCAG | 9650 fluorescence intensity (a.u.)

(listing goes on)

Row | Sequence | binding signal
28 | CATTGACTTTTTCTCACATATTTGTCCATTCGTCTTATTACGGAGTCACCTAGTGCAG | 16100 fluorescence intensity (a.u.)
29 | CGATTTGATTGGGGTTTTTTGGTTTTTTCGATGGACAGGCCGGAGTCACCTAGTGCAG | 9210 fluorescence intensity (a.u.)
30 | CAGTCCCCAAGAAATATCTGTCGTTGACAAGTCAACGCCCCGGAGTCACCTAGTGCAG | 9250 fluorescence intensity (a.u.)
31 | TTGTCTTGAGACTTATTTGCACCTCACTCATCTATATGCACGGAGTCACCTAGTGCAG | 8680 fluorescence intensity (a.u.)
32 | GCAATGACCAACAACCCTATAAATTTCACTCCTTTTTGGCCGGAGTCACCTAGTGCAG | 9280 fluorescence intensity (a.u.)
33 | CTCGATCTTTTCTGTTCGGTCTTTTTCTGCCCACCCCTGCCGGAGTCACCTAGTGCAG | 8540 fluorescence intensity (a.u.)
34 | TTTCAATATCTGGGTAGGGGCAGGTAATTGGGAGGGAATACGGAGTCACCTAGTGCAG | 11600 fluorescence intensity (a.u.)
35 | GTTCGTCAACAAGCCACGGTCGTCTCAATTCCTTTTTCGTCGGAGTCACCTAGTGCAG | 10800 fluorescence intensity (a.u.)
36 | CACACCACACACTGATGCAACGGCACTTAAGCGCACGAAGCGGAGTCACCTAGTGCAG | 8060 fluorescence intensity (a.u.)
37 | TTTCTTTGTCTCCTGTCTCACGCATTTGGTCCCGACTGATCGGAGTCACCTAGTGCAG | 8610 fluorescence intensity (a.u.)
38 | TTTTATTTTACTCCTAACCCCTATCTCTACTATTATAAAACGGAGTCACCTAGTGCAG | 8790 fluorescence intensity (a.u.)
39 | GGGGTGGGTATGCATCTGAGTACTCTCATAACGGCCCAGCCGGAGTCACCTAGTGCAG | 10300 fluorescence intensity (a.u.)
40 | ACCCTTAACTCCTACAGTCGATCGAATTATCCTCTTCAACCGGAGTCACCTAGTGCAG | 8620 fluorescence intensity (a.u.)
41 | TGTGTGTGCGTGTCTATGGAACCATTGTACTAAATTTGTTCGGAGTCACCTAGTGCAG | 9510 fluorescence intensity (a.u.)
42 | GCGCATGGCTTTTACTTCATGAATGTTTAGTGTACCAAATCGGAGTCACCTAGTGCAG | 9550 fluorescence intensity (a.u.)
43 | TATTGACAATCGACACTTTTTTTTTCCAATTTTCCTTAAACGGAGTCACCTAGTGCAG | 8500 fluorescence intensity (a.u.)
44 | ACCGAAATTTCCAACCCTGGTCGCAGCAGCTGTTTTACCGCGGAGTCACCTAGTGCAG | 8270 fluorescence intensity (a.u.)
45 | GGGTGAGCTTCTTCCACGCCCGCCGGCGTCCATCTCGCGTCGGAGTCACCTAGTGCAG | 9030 fluorescence intensity (a.u.)
46 | CCACCACCGCCACCAACGCTCCCCTCCGCCTCGTCCCCATCGGAGTCACCTAGTGCAG | 8080 fluorescence intensity (a.u.)
47 | CTCTTCTCTCTTTCTCTTGTGCGAGCACACACATTTTCCTCGGAGTCACCTAGTGCAG | 9440 fluorescence intensity (a.u.)
48 | TTTTTAAACATGTTTGACCACTCGTCTTATTCAAAAACTTCGGAGTCACCTAGTGCAG | 9180 fluorescence intensity (a.u.)
49 | GTGGTTGATACTAGTGTTATTATTGCTTATAGATACAATTCGGAGTCACCTAGTGCAG | 8350 fluorescence intensity (a.u.)
50 | CGCCCACTCCCCTACCACGACCAGCCCGCACCGCACACGCCGGAGTCACCTAGTGCAG | 9560 fluorescence intensity (a.u.)
51 | CCGTCTTCGCCGTCCCGGCCACTGGCAGCCCCGCGGTCGCCGGAGTCACCTAGTGCAG | 9020 fluorescence intensity (a.u.)
52 | GTAGTACGGGGATTTTTTTTAACTTTTAATTTTATTTATTCGGAGTCACCTAGTGCAG | 8450 fluorescence intensity (a.u.)
53 | TTCAGTTTTTGCTTACAACGTTTGACCACTCGTCTTATTCCGGAGTCACCTAGTGCAG | 11900 fluorescence intensity (a.u.)
54 | ACTACTCGTATATCTTTCAGTTAACATGACCATTGCACCACGGAGTCACCTAGTGCAG | 9660 fluorescence intensity (a.u.)

From PMC7819943, “Rice protein-binding microarrays: a tool to detect cis-acting elements near promoter regions in rice”
